In patent US8629135B2, “Pharmaceutical compositions comprising RET inhibitors and methods for the treatment of cancer” (Queen's University at Kingston, priority 2008, dated 2014):
Structures can show the parent of a compound that is named as a salt.

The chains behind the UniProt entries cited, without tags or fusion partners. Residues count along the entry.
UniProt P07949, 29-1114: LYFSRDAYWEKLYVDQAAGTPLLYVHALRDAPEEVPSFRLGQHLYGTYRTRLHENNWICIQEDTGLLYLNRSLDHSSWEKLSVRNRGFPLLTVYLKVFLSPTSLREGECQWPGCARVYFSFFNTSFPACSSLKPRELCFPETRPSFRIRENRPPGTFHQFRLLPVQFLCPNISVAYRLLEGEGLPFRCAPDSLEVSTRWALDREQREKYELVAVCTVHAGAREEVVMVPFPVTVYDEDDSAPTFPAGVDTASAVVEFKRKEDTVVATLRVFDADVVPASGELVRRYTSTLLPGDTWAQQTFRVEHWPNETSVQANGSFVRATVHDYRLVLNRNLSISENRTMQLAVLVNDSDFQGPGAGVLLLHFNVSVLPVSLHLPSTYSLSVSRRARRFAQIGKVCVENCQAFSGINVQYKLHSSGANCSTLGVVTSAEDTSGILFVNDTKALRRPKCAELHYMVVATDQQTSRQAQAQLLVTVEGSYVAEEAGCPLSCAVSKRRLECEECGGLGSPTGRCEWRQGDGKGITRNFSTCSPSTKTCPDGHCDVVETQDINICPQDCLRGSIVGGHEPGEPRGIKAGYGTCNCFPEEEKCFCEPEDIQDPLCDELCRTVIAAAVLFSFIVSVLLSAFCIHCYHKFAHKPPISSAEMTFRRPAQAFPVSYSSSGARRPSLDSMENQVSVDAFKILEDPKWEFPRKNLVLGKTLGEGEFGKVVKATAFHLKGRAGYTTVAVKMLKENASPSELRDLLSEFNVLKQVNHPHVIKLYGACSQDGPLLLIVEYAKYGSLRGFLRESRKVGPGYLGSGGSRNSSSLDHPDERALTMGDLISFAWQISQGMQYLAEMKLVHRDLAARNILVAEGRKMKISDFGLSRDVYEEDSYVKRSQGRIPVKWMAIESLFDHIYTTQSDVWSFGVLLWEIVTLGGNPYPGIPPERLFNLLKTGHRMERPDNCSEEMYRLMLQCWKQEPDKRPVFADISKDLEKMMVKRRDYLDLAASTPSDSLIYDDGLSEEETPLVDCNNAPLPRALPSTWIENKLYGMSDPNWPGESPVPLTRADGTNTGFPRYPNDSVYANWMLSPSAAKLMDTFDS

Experiments:
RET [1] = target: T1, RET (Homo sapiens (Human), UniProt P07949); test: Protein based RET kinase assay with purified recombinant GST-RET; assay type: biochemical
RET [2] = target: T1, RET; test: RET autophosphorylation (pY905 Western blot) in HEK293 cells stably expressing RET; conditions: EC50, cell based assay

Structure (SMILES): CN(C)CC/C=C1\c2ccccc2COc2ccccc21 [SW-07, Doxepin Hydrochloride]
- IC50 (RET [1]): > 20 µM
- EC50 (RET [2]): > 10 µM
